Key:
[1] = Plasma concentration in conscious rhesus monkeys; settings: at the end of the MNI-2+amiodarone experiment
Description: Arterial BP and ECG waveforms from four chronically-instrumented male, rhesus monkeys (8-16 kg at time of study, approximately 5–8 years of age), were continuously recorded (Notocord-hem™ v 4.3.0.67) and analyzed as described. Prior to study, animals were acclimated to the restraint chair and the laboratory environment over multiple sessions. […] MNI-2 was formulated in 30% Captisol®. […] Samples were placed on wet ice, centrifuged at 4 °C and plasma removed and stored at −70 °C until analysis of concentration of test agents and any metabolites of interest.

Protein sequences, listed by entry. Tags and fused reporters are not part of them.
UniProt Q01668, whole entry: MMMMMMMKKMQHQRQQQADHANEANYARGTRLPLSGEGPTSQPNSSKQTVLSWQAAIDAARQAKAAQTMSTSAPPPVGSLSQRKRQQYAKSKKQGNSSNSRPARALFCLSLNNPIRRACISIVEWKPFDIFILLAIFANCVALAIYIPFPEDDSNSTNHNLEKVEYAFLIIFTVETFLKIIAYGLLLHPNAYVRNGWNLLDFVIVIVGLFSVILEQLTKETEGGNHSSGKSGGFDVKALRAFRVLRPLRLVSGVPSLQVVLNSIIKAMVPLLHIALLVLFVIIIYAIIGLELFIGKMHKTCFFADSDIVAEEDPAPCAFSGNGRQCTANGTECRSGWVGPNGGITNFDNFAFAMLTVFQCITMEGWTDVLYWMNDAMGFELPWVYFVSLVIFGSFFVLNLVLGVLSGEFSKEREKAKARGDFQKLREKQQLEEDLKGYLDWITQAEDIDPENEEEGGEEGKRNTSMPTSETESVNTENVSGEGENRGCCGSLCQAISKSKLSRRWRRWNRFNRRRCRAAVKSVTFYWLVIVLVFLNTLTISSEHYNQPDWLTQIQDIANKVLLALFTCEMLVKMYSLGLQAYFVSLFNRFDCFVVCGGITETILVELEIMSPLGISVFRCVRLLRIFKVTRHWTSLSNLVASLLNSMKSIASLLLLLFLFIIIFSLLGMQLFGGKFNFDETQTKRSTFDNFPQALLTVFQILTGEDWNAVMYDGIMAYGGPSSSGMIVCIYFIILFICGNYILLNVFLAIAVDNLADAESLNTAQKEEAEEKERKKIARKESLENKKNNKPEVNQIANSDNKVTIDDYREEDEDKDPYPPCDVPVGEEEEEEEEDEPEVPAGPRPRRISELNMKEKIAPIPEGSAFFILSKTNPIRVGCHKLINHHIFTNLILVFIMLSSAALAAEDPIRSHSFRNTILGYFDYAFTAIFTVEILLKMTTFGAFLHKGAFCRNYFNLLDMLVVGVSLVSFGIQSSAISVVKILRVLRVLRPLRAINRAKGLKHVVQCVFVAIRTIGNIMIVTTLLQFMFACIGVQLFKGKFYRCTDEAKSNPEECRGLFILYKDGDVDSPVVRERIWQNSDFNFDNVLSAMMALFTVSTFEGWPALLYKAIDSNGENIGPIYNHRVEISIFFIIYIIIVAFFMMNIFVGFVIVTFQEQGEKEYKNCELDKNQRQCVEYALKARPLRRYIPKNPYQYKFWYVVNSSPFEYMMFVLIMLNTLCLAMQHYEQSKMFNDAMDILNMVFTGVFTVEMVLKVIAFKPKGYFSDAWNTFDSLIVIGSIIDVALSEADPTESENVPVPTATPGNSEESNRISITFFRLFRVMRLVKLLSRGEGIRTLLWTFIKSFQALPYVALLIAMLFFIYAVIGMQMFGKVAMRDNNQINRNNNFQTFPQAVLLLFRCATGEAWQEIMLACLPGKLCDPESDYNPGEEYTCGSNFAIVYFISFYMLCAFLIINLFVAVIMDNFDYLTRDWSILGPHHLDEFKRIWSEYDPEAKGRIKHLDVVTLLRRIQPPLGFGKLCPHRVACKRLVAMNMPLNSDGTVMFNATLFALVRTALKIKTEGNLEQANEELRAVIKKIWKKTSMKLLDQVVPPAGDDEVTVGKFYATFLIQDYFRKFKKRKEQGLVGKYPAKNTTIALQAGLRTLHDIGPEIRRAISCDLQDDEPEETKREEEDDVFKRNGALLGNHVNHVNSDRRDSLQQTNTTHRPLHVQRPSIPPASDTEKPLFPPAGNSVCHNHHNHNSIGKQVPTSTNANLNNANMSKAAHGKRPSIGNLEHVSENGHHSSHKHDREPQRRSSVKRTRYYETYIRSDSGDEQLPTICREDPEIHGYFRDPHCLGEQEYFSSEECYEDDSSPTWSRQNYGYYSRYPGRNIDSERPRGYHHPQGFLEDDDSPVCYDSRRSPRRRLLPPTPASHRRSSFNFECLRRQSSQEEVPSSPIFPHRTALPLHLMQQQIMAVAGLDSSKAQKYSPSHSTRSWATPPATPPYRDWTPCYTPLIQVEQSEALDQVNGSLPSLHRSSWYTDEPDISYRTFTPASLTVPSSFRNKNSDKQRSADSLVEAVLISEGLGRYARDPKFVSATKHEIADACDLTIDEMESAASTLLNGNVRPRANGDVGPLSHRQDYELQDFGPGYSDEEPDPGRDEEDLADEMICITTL

[2] = target: T1, Cav1.3 (Homo sapiens, UniProt Q01668); assay: Ca2+ influx in Cav1.3/HEK-293 cells (FDSS); assay type: cell-based; settings: IC50, Ca2+ influx inhibition by amiodarone
T1 construct: host or cells: HEK-293 (transient overexpression)
Description: The HEK-293 cell line overexpressing Cav1.2 channel proteins was maintained in-house. HEK-293 cells transiently overexpressing Cav1.3 channel proteins were purchased from ChanTest (Charles River Laboratories, Cleveland, OH, USA). The assay was conducted as previously described. Briefly, on experiment day, cells were incubated with Codex ACTOne® dye (Codex Biosolutions, Inc., Gaithersburg, MD, USA) formulated in PPB buffer containing 25 mM potassium (in mM: 127 NaCl, 25 KCl 0.005 CaCl2, 1.7 MgCl2, 10 HEPES, pH = 7.2 with NaOH), or PPB buffer containing 1 mM potassium (in mM: 151 NaCl, 1 KCl 0.005 CaCl2, 1.7 MgCl2, 10 HEPES, pH = 7.2 with NaOH) for 1 h at room temperature, then test compounds were added for another 30-minute incubation at room temperature with a final volume of 100 μL. The Hamamatsu FDSS/μCell imaging platform simultaneously collected Ca^2+ signals from 96-well plates, at a sampling rate of 16 Hz for 20 seconds as baseline, then a trigger buffer (containing in mM: 119 NaCl, 25 KCl, 4 CaCl2, 1.7 MgCl2, 10 HEPES, pH = 7.2 with NaOH) was added using the dispenser of the FDSS/μCell instrument to generate Ca^2+ transient for 40 seconds. The peak amplitude within the latter 40 seconds minus the average amplitude of the first 20 seconds is the final Ca^2+ transient response of each well. […] Relative response of each well was calculated as follows: […]

[3] = Plasma concentration in anesthetized guinea pigs; settings: IV
Description: Adult, male Dunkin-Hartley guinea pigs (350–550 g) were anesthetized and instrumented as previously described.

CCCCc1oc2ccccc2c1C(=O)c1cc(I)c(OCCN(CC)CC)c(I)c1 [amiodarone, reference compound] showed a Plasma concentration [1] of 402 ± 23 ng/mL, an IC50 ([2]; Cav1.3/HEK-293, 1 μM MNI-1 + amiodarone) of 190 nM and an IC50 ([2]; Cav1.3/HEK-293, amiodarone alone) of 530 nM. For the same molecule, the “Plasma concentration of parent” value ([3]; agent + vehicle, End of Infusion 1) was 1100 ± 200 nM, the “Plasma concentration of parent” value ([3]; agent + vehicle, End of Infusion 2) was 1100 ± 300 nM and the “Plasma concentration of parent” value ([3]; agent + vehicle, End of Infusion 3) was 1100 ± 300 nM. The “Plasma concentration of parent” value ([3]; agent + vehicle, End of Infusion 4) was 1400 ± 400 nM, the “Plasma concentration of parent” value ([3]; treatment MNI-2+AMIO, End of Infusion 1) was 1200 ± 200 nM and the “Plasma concentration of parent” value ([3]; treatment MNI-2+AMIO, End of Infusion 2) was 900 ± 40 nM. The “Plasma concentration of parent” value ([3]; treatment MNI-2+AMIO, End of Infusion 3) was 900 ± 100 nM and the “Plasma concentration of parent” value ([3]; treatment MNI-2+AMIO, End of Infusion 4) was 900 ± 200 nM.
